The other results are listed elsewhere or left out. Small differences around the control level are noise.
Compound: CN[C@@H]1C[C@H]2O[C@@](C)([C@@H]1OC)n1c3ccccc3c3c4c(c5c6ccccc6n2c5c31)C(=O)NC4 [staurosporine]
Test: log2 fold change of tryptic peptide abundance, ligand vs vehicle (limited proteolysis) (log2 ratio); higher = more trypsin-susceptible (destabilized)
Settings: ligand concentration: 20 uM; sample: K562 cleared lysate; digestion: 4 min, 22 C (HT-PELSA RT4min, Orbitrap Astral)

By UniProt entry, the sequences of proteins in these tests, tags left out. Where a name states a change or a piece, a line headed by the entry shows the natural chain unless it says otherwise.
UniProt Q6P1K2: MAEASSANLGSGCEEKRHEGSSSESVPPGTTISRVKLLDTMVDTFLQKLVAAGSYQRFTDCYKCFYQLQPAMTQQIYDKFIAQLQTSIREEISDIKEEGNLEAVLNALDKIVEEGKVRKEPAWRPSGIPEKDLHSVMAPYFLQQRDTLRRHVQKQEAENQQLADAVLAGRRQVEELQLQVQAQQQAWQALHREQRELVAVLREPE
UniProt Q68DC2: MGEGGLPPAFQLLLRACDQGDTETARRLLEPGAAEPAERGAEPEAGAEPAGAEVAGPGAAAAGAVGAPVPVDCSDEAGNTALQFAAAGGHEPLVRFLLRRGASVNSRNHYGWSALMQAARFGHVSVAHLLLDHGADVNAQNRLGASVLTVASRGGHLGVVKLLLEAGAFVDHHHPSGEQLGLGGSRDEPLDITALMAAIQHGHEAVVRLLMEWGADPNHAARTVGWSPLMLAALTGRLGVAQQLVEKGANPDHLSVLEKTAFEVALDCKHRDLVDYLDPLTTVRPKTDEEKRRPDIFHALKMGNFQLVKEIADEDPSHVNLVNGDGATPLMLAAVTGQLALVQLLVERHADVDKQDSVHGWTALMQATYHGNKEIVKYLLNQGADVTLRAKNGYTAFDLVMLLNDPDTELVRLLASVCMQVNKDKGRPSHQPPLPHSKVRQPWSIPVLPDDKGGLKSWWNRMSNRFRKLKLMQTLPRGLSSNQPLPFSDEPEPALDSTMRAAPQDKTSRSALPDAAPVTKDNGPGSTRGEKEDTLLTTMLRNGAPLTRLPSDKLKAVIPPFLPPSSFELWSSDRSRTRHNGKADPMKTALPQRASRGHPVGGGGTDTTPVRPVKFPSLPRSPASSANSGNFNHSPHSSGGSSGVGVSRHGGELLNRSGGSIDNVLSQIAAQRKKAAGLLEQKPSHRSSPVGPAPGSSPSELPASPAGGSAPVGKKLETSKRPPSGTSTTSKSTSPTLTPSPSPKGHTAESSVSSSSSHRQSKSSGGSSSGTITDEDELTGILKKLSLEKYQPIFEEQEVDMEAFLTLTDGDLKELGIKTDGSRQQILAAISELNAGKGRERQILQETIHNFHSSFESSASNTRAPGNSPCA
UniProt Q6QEF8, whole entry: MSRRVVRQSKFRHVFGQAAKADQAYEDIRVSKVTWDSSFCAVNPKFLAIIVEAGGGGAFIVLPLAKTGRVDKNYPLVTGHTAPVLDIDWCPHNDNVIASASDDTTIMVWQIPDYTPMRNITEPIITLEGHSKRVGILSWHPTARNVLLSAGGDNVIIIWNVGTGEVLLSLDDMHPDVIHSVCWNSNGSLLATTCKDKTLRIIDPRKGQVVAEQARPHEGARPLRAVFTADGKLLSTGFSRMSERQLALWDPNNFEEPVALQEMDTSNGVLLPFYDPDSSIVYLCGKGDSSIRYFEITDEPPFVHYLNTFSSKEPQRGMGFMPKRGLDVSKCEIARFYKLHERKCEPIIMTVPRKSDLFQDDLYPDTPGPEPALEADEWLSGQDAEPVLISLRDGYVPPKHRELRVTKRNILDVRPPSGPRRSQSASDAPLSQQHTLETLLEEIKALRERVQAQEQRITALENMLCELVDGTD
UniProt Q6IQ22: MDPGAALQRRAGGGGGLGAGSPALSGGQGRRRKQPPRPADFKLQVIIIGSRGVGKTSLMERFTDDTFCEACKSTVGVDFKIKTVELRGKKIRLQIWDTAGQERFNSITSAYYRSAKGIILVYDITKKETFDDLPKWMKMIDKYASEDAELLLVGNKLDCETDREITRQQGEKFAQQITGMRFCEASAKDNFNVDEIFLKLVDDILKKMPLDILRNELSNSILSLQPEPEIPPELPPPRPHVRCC
UniProt Q6PEY2, whole entry: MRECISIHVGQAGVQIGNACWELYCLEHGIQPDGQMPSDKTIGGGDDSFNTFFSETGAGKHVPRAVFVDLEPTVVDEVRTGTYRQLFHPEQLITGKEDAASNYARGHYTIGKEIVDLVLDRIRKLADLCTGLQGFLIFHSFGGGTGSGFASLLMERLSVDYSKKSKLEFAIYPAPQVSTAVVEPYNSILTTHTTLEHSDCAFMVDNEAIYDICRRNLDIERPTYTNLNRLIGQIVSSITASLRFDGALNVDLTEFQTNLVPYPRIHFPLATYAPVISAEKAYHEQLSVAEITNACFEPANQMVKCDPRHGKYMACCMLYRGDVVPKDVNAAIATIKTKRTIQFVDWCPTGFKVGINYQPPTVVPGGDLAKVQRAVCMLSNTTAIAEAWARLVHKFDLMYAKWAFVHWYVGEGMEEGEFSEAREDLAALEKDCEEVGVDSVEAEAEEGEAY
UniProt Q6UWE0: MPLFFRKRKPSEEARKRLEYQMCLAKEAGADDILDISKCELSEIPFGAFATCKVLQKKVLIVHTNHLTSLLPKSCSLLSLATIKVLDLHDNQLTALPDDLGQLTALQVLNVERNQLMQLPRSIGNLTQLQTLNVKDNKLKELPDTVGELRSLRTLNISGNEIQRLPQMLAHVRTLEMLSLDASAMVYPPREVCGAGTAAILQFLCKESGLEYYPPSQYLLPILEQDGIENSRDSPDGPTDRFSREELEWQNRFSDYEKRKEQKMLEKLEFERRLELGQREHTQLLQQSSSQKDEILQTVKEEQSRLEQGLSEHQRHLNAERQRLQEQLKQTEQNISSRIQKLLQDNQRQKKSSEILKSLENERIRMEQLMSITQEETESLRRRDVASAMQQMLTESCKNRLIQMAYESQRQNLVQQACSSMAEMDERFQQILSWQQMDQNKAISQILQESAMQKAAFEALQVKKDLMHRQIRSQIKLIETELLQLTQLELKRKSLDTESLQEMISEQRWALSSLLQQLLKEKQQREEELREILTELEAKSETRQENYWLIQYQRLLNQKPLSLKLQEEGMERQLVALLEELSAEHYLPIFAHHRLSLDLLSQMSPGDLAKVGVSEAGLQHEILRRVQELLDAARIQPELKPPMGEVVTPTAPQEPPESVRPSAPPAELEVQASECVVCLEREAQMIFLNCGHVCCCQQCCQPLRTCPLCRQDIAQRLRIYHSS
UniProt Q6PCT2: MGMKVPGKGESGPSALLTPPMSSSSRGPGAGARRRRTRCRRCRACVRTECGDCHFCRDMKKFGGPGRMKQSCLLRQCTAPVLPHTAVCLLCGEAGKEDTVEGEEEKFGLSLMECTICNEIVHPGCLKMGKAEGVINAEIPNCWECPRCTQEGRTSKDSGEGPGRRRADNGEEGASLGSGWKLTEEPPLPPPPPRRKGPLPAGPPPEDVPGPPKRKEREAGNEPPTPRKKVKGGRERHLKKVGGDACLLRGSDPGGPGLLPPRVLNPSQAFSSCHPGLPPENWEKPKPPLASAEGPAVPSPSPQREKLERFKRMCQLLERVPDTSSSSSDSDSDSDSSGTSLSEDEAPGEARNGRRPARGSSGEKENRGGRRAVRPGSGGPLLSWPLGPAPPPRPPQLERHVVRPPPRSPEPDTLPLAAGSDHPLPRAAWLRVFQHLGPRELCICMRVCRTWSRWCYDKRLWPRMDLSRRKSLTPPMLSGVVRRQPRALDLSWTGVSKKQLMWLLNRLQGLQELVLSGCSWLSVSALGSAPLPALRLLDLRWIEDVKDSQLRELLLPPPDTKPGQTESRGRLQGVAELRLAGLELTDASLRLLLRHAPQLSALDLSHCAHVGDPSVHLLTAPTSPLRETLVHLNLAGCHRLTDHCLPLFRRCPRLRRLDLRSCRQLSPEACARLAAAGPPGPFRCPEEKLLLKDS
UniProt Q6ZMT4: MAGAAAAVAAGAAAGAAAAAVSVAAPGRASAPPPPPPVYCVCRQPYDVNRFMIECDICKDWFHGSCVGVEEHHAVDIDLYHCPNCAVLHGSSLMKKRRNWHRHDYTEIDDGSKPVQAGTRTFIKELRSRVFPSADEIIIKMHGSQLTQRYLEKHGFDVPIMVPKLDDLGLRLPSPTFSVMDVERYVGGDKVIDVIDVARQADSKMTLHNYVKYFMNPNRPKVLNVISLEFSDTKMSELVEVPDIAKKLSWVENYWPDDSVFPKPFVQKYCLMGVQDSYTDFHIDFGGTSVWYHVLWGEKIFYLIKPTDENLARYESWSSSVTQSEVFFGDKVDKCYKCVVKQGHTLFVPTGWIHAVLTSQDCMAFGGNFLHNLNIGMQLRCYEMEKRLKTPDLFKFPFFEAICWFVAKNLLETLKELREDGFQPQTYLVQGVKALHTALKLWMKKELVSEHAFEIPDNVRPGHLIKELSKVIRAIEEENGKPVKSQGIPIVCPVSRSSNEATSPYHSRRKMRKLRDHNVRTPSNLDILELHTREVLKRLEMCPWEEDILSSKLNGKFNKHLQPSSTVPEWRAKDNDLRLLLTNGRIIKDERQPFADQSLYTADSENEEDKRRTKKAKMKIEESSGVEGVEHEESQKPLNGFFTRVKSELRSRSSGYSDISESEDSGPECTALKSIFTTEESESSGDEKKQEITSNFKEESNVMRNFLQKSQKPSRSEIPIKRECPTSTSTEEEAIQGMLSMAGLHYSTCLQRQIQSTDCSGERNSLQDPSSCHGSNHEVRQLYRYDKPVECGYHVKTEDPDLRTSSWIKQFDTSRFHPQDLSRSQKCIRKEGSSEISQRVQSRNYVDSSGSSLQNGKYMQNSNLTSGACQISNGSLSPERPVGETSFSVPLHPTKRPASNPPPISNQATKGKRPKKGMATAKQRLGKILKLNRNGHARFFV
UniProt Q6ICB0: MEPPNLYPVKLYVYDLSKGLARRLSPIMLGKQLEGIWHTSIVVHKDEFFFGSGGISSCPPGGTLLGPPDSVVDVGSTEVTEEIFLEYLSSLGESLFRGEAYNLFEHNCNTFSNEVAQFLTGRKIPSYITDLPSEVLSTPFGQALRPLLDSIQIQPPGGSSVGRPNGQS
UniProt Q5XPI4: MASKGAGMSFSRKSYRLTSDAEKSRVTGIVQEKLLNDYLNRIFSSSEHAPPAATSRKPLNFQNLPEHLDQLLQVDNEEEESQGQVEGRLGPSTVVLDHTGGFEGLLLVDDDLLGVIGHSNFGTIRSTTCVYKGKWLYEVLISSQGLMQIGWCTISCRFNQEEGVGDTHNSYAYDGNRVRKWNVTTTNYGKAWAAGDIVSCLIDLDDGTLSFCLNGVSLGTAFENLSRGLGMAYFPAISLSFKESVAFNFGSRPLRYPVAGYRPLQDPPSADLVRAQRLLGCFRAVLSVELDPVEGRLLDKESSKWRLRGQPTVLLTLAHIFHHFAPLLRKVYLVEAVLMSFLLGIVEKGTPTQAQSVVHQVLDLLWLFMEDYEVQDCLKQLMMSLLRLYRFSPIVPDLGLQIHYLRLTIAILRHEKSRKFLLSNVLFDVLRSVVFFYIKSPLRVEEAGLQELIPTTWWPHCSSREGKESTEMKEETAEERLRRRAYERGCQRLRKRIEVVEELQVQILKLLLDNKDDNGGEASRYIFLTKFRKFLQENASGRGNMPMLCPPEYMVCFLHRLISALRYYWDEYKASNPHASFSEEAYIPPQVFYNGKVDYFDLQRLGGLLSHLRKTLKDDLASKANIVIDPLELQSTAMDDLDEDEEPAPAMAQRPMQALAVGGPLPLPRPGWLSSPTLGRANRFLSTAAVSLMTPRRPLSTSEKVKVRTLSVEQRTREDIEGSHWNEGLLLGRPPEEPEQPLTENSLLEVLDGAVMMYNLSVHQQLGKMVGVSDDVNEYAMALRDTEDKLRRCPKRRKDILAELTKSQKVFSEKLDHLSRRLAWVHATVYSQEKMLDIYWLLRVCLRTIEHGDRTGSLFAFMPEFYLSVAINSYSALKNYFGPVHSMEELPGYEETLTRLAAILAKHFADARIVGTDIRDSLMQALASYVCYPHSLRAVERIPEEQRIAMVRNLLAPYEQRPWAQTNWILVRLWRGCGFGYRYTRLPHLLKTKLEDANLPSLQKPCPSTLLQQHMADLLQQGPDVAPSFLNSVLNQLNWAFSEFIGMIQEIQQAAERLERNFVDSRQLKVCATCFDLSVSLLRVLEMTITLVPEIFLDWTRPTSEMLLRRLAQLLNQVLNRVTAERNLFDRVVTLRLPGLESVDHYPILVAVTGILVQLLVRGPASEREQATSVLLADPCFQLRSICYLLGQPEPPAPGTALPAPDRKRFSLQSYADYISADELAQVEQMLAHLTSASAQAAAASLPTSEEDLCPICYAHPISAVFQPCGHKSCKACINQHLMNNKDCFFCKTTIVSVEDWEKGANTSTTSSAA
UniProt Q6P1X6: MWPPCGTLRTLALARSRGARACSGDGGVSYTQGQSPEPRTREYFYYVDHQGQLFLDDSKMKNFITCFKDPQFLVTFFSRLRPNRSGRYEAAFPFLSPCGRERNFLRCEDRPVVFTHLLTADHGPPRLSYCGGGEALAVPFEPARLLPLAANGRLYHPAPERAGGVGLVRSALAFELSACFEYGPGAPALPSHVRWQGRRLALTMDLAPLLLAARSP

| Target | log2 fold change |
| --- | --- |
| PMF1 (peptide sequence: KEPAWRPSGIPEK, peptide start residue: 119) (UniProt Q6P1K2) | -0.332 |
| ANKS6 (peptide sequence: SGGSIDNVLSQIAAQR, peptide start residue: 657) (UniProt Q68DC2) | -0.327 |
| CORO6 (peptide sequence: CEPIIMTVPR, peptide start residue: 343) (UniProt Q6QEF8) | 0.11 |
| RAB12 (peptide sequence: AGGGGGLGAGSPALSGGQGR, peptide start residue: 11) (UniProt Q6IQ22) | -0.221 |
| UniProt Q6PEY2 (peptide sequence: LIGQIVSSITASLR, peptide start residue: 230) | -0.247 |
| LRSAM1 (peptide sequence: KRLEYQMCLAK, peptide start residue: 16) (UniProt Q6UWE0) | 1.07 |
| FBXL19 (peptide sequence: RKGPLPAGPPPEDVPGPPK, peptide start residue: 195) (UniProt Q6PCT2) | -0.222 |
| UniProt Q6ZMT4 (peptide sequence: AIEEENGK, peptide start residue: 474) | 0.252 |
| UniProt Q6ICB0 (peptide sequence: LSPIMLGK, peptide start residue: 24) | -0.384 |
| RNF123 (peptide sequence: DTEDKLR, peptide start residue: 785) (UniProt Q5XPI4) | -0.456 |
| C8orf82 (peptide sequence: RLALTMDLAPLLLAAR, peptide start residue: 199) (UniProt Q6P1X6) | -0.219 |

From the supplement of paper PMC12819154, “High-throughput peptide-centric local stability assay extends protein–ligand identification to membrane proteins, tissues and bacteria” (Nature Structural & Molecular Biology, 2025)
